Assay [1] has as its target epidermal growth factor receptor (EGFR) (mouse (endogenous in TKO HCC cells)) (UniProt Q01279). In words: co-IP; IP of endogenous EGFR (IgG as control) from TKO HCC cell lysate; immunoblot of unbound and pull-down fractions; also cells with shβcat3 (β-catenin KD).
Assay [2] concerns the target β-catenin (mouse (endogenous in TKO HCC cells)) (UniProt Q02248). In words: co-IP; IP of endogenous β-catenin (IgG as control) from TKO HCC cell lysate in Triton-X IP Lysis Buffer, antibody 1 h at 4 °C, then A/G agarose beads 1 h; immunoblot; also cells treated with Wnt3A media and cells with shEcad2, shNcad1 or both.
For assay [3], the target named is Axin (mouse (endogenous in TKO HCC cells)) (UniProt O35625). In words: co-IP; IP of endogenous Axin (IgG as control) from TKO HCC cell lysate; immunoblot for Axin, GSK3α/β and phospho-β-catenin.

Chains of the proteins cited; added tags and fusions are not shown. Residues count along the entry.
UniProt Q02248: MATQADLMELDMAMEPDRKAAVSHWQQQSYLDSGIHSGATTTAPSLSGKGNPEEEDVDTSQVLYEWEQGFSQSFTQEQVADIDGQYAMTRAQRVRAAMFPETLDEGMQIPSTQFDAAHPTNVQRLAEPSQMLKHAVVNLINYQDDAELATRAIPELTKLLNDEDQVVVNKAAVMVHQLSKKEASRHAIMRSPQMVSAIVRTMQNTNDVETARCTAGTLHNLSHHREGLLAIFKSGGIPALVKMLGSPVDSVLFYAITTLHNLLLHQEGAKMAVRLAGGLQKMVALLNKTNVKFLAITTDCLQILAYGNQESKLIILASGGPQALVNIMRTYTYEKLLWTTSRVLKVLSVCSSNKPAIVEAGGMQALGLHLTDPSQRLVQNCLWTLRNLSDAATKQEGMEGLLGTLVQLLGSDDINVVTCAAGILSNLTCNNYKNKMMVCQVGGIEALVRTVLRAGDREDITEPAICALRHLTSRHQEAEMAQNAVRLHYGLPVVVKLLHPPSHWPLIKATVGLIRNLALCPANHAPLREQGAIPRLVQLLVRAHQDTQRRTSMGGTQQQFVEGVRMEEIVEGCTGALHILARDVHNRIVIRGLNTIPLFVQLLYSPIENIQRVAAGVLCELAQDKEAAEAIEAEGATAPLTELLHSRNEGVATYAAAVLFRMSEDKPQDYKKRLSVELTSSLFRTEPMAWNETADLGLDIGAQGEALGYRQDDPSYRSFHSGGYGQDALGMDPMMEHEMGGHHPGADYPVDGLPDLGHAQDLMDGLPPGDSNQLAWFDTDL
UniProt O35625: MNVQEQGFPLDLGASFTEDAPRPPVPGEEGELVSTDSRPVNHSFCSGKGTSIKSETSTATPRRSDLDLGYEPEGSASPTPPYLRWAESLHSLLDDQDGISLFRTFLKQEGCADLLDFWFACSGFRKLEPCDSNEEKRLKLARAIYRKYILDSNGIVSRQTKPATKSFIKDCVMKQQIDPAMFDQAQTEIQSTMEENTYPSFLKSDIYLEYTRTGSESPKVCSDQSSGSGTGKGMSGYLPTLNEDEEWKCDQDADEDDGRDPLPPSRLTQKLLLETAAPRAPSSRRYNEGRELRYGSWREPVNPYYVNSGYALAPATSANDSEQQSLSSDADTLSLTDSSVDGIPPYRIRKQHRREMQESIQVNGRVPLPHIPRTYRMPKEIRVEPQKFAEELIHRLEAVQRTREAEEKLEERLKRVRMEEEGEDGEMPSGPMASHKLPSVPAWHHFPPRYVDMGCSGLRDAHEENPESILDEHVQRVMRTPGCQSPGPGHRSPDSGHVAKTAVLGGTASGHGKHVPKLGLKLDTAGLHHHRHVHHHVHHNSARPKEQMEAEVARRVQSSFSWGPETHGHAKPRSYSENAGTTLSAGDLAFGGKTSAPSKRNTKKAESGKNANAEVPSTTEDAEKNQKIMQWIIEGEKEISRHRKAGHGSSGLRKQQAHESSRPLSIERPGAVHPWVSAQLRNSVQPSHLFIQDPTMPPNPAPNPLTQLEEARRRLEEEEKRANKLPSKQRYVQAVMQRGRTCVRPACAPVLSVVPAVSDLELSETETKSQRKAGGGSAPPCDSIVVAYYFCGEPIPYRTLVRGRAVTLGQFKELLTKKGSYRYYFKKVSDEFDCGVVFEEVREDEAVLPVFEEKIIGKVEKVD
UniProt P15116, residues 160-906: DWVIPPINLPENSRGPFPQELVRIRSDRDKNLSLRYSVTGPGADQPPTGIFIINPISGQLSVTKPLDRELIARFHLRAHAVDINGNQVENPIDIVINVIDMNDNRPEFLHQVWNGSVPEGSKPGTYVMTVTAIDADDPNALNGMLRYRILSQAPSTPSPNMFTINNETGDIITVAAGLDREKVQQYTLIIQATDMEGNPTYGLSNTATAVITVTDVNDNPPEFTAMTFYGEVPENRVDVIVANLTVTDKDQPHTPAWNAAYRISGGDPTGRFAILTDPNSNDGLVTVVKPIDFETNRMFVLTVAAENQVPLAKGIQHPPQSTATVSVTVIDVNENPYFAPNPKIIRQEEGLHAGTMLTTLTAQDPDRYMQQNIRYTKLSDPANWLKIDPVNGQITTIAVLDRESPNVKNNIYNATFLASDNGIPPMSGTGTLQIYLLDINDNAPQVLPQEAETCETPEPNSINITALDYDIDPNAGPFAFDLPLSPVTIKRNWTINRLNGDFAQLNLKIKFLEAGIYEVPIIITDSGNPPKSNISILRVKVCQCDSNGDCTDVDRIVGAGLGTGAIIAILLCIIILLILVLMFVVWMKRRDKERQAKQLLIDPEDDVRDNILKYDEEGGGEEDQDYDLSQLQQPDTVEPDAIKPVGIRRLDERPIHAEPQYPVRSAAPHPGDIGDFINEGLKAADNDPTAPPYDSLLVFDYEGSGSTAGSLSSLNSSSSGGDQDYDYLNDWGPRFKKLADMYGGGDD

No constants are given. Whether binding was seen depends on the method and setting. Binding seen in cells or lysates may run through a third protein. Some binding calls cover weakened binding; strength is not graded here.

Turning to “N-cadherin (from UniProt P15116 160-906)”, the binding result in assay [1] and in assay [2] was “binds” in each case. On to β-catenin (from UniProt Q02248 1-781), for which the binding entry in assay [1] is “no binding”. “phospho-β-catenin (Ser33/37/Thr41) (from UniProt Q02248 1-781)”: the binding entry in assay [3] is given as “binds”.

Values taken from article PMC6478918.
